{
  "sequences": {"note": "By UniProt entry, the sequences of proteins in these tests, tags left out.", "UniProt Q14258": "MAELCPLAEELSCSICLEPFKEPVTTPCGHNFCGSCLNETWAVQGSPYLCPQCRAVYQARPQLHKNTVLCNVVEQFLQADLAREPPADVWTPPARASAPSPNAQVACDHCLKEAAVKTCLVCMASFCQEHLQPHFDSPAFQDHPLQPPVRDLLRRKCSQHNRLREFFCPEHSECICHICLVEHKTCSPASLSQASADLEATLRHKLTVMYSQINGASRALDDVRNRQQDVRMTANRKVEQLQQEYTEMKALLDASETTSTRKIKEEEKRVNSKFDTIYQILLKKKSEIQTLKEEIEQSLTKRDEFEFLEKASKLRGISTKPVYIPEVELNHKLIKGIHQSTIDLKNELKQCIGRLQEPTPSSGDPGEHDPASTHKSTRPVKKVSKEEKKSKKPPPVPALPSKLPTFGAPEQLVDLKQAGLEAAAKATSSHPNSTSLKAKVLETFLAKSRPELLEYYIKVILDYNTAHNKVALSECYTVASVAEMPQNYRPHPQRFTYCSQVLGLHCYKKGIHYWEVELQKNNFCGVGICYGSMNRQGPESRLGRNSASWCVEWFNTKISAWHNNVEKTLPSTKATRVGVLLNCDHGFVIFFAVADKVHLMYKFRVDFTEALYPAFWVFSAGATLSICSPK"},
  "source": "paper PMC10835844",
  "biological_target": "Tripartite motif 25 (TRIM25), endogenous (human (endogenous in LN229 and U251)) (UniProt Q14258)",
  "experiment": "affinity purification with mass spectrometry; immunoprecipitation with a TRIM25-specific antibody on protein A/G magnetic beads from LN229 and U251 lysates (IP lysis buffer, overnight at 4 °C), LC-MS/MS; proteins found in the IgG groups excluded",
  "note": "No constants are given. Whether binding was seen depends on the method and setting. In cells and extracts the contact can be indirect. A yes stands for co-enrichment or nearness to the bait. Other partners may have been found.",
  "data": [
    {"binder": "NONO (Non-POU domain containing octamer binding), endogenous (protein, UniProt Q15233 1-471) MQSNKTFNLEKQNHTPRKHHQHHHQQQHHQQQQQQPPPPPIPANGQQASSQNEGLTIDLKNFRKPGEKTFTQRSRLFVGNLPPDITEEEMRKLFEKYGKAGEVFIHKDKGFGFIRLETRTLAEIAKVELDNMPLRGKQLRVRFACHSASLTVRNLPQYVSNELLEEAFSVFGQVERAVVIVDDRGRPSGKGIVEFSGKPAARKALDRCSEGSFLLTTFPRPVTVEPMDQLDDEEGLPEKLVIKNQQFHKEREQPPRFAQPGSFEYEYAMRWKALIEMEKQQQDQVDRNIKEAREKLEMEMEAARHEHQVMLMRQDLMRRQEELRRMEELHNQEVQKRKQLELRQEEERRRREEEMRRQQEEMMRRQQEGFKGTFPDAREQEIRMGQMAMGGAMGINNRGAMPPAPVPAGTPAPPGPATMMPDGTLGLTPPTTERFGQAATMEGIGAIGGTPPAFNRAAPGAEFAPNKRRRY", "values": [
      {"measurement": "binding", "result": "binds"}
    ]}
  ]
}
